PubChem BioAssay AID743121 | NCATS, 2013

- Test: 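Knock-downs that sensitise breast cancer cells to camptothecin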 (primary screen)
- Cell system: MDA-MB-231 cells, a human breast cancer line
- Reagents: single siRNA against human genes, 20 nM siRNA (0.8 pmol per well)
- Timing: 120 h (drug added 48 h after transfection, read 72 h later)
- Treatment: camptothecin 20 nM (about EC30) for 72 h; vehicle 0.1% DMSO in parallel plates
- Read-out: 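Cell viability by ATP luminescence (CellTiter-Glo) as % of non-targeting siRNA wells, and the log2 ratio of viability without drug over viability with camptothecin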
- Reading the numbers: log2 vehicle/camptothecin viability: higher = stronger sensitisation to camptothecin; viability with camptothecin and viability without drug: higher = more viable cells
- Rule for the call: 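Active genes have an RSA gene-level p-value below 0.001, computed from the ratios of their separate siRNAs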
In all, the deposit lists about 26,000 reagents; this is an unselected part. Over the whole deposit, 167 (0.63%) are marked active. 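Calls are per gene from RSA p-values that are not deposited; an individual active-marked siRNA can sensitise only weakly.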 Entries without a mark were called inactive. Reagents against one gene are numbered here.

gene knocked down	siRNA no.	log2 vehicle/camptothecin viability	viability with camptothecin (% of control)	viability without drug (% of control)
OPN5 (opsin 5)	1	-0.0277	95	93.2
OPN5 (opsin 5)	2	-0.213	66.5	57.4
OPN5 (opsin 5)	3	-0.405	71.9	54.3
OPN5 (opsin 5)	4	-0.075	74.9	71.1
OR12D2 (olfactory receptor family 12 subfamily D member 2)	1	-0.0789	105	99.2
OR12D2 (olfactory receptor family 12 subfamily D member 2)	2	-0.237	89.3	75.8
OR12D2 (olfactory receptor family 12 subfamily D member 2)	3	-0.179	84.3	74.4
OR12D2 (olfactory receptor family 12 subfamily D member 2)	4	-0.0399	64.7	62.9
TAS2R14 (taste 2 receptor member 14)	1	0.398	62.9	82.8
TAS2R14 (taste 2 receptor member 14)	2	-0.236	100	85
TAS2R14 (taste 2 receptor member 14)	3	-0.263	67.7	56.4
TAS2R14 (taste 2 receptor member 14)	4	-0.413	86.6	65
PPP1R2C (PPP1R2 family member C)	1	-0.0572	24.8	23.8
PPP1R2C (PPP1R2 family member C)	2	0.847	21.4	38.6
PPP1R2C (PPP1R2 family member C)	3	-0.358	45	35.1
PPP1R2C (PPP1R2 family member C)	4	-0.538	78.1	53.8

No new results follow: entries from further up.
gene knocked down	siRNA no.	log2 vehicle/camptothecin viability	viability with camptothecin (% of control)	viability without drug (% of control)
OPN5 (opsin 5)	3	-0.405	71.9	54.3
OPN5 (opsin 5)	4	-0.075	74.9	71.1
OR12D2 (olfactory receptor family 12 subfamily D member 2)	1	-0.0789	105	99.2
OR12D2 (olfactory receptor family 12 subfamily D member 2)	2	-0.237	89.3	75.8
OR12D2 (olfactory receptor family 12 subfamily D member 2)	3	-0.179	84.3	74.4

The results go on.
gene knocked down	siRNA no.	log2 vehicle/camptothecin viability	viability with camptothecin (% of control)	viability without drug (% of control)
UQCRC1 (ubiquinol-cytochrome c reductase core protein 1)	1	-0.146	49.9	45
UQCRC1 (ubiquinol-cytochrome c reductase core protein 1)	2	0.0868	44.6	47.3
UQCRC1 (ubiquinol-cytochrome c reductase core protein 1)	3	-0.523	116	80.5
UQCRC1 (ubiquinol-cytochrome c reductase core protein 1)	4	-0.663	109	68.5
PDHA1 (pyruvate dehydrogenase E1 subunit alpha 1)	1	-0.00394	61.9	61.8
PDHA1 (pyruvate dehydrogenase E1 subunit alpha 1)	2	-0.0442	99.5	96.5
PDHA1 (pyruvate dehydrogenase E1 subunit alpha 1)	3	-0.0672	54.7	52.2
PDHA1 (pyruvate dehydrogenase E1 subunit alpha 1)	4	-0.253	67.8	56.9
SACS (sacsin molecular chaperone)	1	-0.423	121	90.3
SACS (sacsin molecular chaperone)	2	-0.124	88.3	81
SACS (sacsin molecular chaperone)	3	-0.0393	89.4	87
SACS (sacsin molecular chaperone)	4	-0.195	98.7	86.2
